This passage reports binding result and IC50 results from article PMC11194072, “Cdc13 exhibits dynamic DNA strand exchange in the presence of telomeric DNA”.

Chains of the proteins cited; added tags and fusions are not shown. Chains listed by the source or under a name are the forms on record and can include a tag or linker.
RPA heterotrimer (Rfa1-3) (Saccharomyces cerevisiae), one chain, as listed by the source, chain 1 of 3: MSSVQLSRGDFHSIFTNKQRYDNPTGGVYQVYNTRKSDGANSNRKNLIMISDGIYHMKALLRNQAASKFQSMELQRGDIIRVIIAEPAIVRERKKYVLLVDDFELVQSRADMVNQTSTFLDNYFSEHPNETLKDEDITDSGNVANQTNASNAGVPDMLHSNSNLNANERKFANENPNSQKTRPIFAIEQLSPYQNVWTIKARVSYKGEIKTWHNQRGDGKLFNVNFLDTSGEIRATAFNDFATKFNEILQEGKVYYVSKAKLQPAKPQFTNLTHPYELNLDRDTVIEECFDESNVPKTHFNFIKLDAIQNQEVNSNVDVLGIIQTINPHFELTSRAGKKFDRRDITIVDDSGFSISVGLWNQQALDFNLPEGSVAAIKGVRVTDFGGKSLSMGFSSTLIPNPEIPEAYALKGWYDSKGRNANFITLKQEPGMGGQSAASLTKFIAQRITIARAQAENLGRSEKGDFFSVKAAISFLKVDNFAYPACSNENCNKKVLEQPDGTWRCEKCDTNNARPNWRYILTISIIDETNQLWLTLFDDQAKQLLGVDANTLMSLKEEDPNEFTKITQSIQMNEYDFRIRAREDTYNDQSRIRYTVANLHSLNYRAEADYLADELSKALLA
RPA heterotrimer (Rfa1-3) (Saccharomyces cerevisiae), one chain, as listed by the source, chain 2 of 3: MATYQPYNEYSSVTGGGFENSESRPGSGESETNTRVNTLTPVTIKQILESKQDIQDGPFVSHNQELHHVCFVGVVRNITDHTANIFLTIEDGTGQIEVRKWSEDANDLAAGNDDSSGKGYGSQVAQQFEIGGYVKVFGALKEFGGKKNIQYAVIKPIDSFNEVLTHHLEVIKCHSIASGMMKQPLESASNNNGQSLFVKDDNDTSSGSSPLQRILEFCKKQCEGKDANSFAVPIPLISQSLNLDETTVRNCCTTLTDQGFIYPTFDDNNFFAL
RPA heterotrimer (Rfa1-3) (Saccharomyces cerevisiae), one chain, as listed by the source, chain 3 of 3: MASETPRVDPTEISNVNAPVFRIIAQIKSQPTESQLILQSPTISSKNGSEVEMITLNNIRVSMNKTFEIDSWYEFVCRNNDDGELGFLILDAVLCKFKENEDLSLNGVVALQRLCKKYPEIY

pIC50: −log10 of the molar value. For at least one entry, the source does not settle the construct or the ends of the probe. For some of these results: The comparison behind a weaker result is the experiment's own reference, which may not be listed here. For some of these results: Where a protein sequence is shown, tags need not be part of it. For some of these results: At least one verdict rests on a figure or table, not on a statement of the authors.

Series [1] concerns the target T1, Cdc13 full-length (Sf9) (Saccharomyces cerevisiae) (UniProt P32797).
T1 sequence (looked up): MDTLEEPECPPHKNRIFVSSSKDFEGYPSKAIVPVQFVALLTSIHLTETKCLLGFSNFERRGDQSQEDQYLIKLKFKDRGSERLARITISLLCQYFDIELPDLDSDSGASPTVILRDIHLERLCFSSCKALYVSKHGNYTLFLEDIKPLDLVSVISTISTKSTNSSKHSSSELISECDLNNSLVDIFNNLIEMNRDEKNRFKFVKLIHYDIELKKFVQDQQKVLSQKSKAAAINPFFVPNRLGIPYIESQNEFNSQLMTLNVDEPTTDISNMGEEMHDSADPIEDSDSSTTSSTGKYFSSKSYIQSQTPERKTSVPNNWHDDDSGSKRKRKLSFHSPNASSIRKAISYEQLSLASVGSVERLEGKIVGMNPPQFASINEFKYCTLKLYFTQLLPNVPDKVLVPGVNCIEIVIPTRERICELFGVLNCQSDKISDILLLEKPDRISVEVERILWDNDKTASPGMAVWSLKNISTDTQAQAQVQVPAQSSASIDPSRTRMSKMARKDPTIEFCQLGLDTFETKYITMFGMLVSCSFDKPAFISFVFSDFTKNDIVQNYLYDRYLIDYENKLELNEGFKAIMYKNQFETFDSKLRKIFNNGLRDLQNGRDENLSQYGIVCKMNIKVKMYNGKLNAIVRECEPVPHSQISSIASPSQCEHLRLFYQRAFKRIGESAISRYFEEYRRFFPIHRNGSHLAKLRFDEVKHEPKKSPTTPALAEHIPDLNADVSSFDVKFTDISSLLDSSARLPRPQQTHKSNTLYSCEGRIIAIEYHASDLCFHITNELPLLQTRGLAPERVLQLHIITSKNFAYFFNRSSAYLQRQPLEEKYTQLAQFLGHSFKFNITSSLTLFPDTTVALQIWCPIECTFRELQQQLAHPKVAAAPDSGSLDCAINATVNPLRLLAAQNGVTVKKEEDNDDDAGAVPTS
Nature of the series: competition with a labelled probe. To be noted: 25 mM HEPES pH 8.0, 5% glycerol, 50 mM NaOAc, 150 mM NaCl, 7.5 mM MgCl2, 0.01% Tween 20, EMSA/DDE at 30°C, residues 1-924, protein details: N-terminal SUMO-His6 tag, C-terminal FLAG tag, single-stranded DNA; for pIC50: EC50, prebound IR700-Tel30G 2 nM.

In series [2] the target is T1, Cdc13 full-length (Sf9) (Saccharomyces cerevisiae). The series can be described thus: EMSA. To be noted: IR700-Tel15G prebound, then Tel11G challenge; 25 mM HEPES pH 8.0, 5% glycerol, 50 mM NaOAc, 150 mM NaCl, 7.5 mM MgCl2, 0.01% Tween 20; EMSA/DDE at 30°C; recombinant protein; residues 1-924; protein details: N-terminal SUMO-His6 tag, C-terminal FLAG tag; label: none, or 5' IRDye700; single-stranded DNA.

The target of series [3] is T2, Cdc13 OB1 (Saccharomyces cerevisiae) (UniProt P32797).
T2 sequence (looked up, limits assumed): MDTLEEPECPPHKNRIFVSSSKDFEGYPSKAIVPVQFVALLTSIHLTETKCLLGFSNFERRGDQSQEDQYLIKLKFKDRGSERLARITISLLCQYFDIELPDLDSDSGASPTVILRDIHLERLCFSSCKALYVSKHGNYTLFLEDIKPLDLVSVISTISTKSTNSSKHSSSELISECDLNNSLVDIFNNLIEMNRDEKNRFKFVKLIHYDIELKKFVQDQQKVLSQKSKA
The series can be described thus: BLI. To be noted: failed to robustly bind (data not shown); 25 mM HEPES pH 8.0, 5% glycerol, 50 mM NaOAc, 150 mM NaCl, 7.5 mM MgCl2, 0.01% Tween 20; BLI without glycerol at ~23°C; recombinant protein; protein details: N-terminal His6-SUMO, C-terminal 3xFLAG; label: 5' biotin-TEG; single-stranded DNA.

Series [4] has as its system RPA heterotrimer (Rfa1-3) (Saccharomyces cerevisiae). The series can be described thus: competition with a labelled probe. To be noted: prebound labelled Tel30G, weak even at 100 nM; 25 mM HEPES pH 8.0, 5% glycerol, 50 mM NaOAc, 150 mM NaCl, 7.5 mM MgCl2, 0.01% Tween 20; EMSA/DDE at 30°C; recombinant protein; protein details: untagged; label: none, or 5' IRDye700/800; single-stranded DNA.

As to “GTGTGGGTGTGGTGTGGGTGTGGTGTGGGTGTGTGGGTGTGGTGTGGGTG [Tel50G unlabelled (MB1117)]”, the binding result in series [1] (poor competitor of prebound IR700-Tel50G, even at 25-fold excess, recombinant protein) is reported as “binds more weakly”. As to “TGTGGTGTGTGTGGG [Tel15G (MB1013 / MB1929 IR700)]”, the negative logarithm of the IC50 (pIC50) in series [1] (recombinant …, label: none, or 5' IRDye700) is 8.14. The binding result in series [2] is recorded as “binds”. With “GTGTGGGTGTG [Tel11G (MB1983 / MB2018 IR700)]”, the pIC50 in series [1] (Cdc13 dimer 3.75 nM, recombinant protein, label: none, or 5' IRDye700) was 7.87. The binding result in series [1] (Tel11G failed to compete with prebound IR700-Tel50G, recombinant protein, label: none, or 5' IRDye700) is recorded as “binds more weakly”. In the case of “CGCCATGCTGATCCGTGTGGTGTGTGTGGG [Biotinylated Tel30G (MB2081)]”, the binding result in series [3] is “binds more weakly”. Take “TTTTTTTTTTTTTTTTTTTTTTTTTTTTTT [Poly(dT)30 (MB464 / MB1755 IR700 / MB1982 IR800)]”: the binding result in series [4] is listed as “binds more weakly”.
